This note sets out measurements from paper PMC11172339.

The chains behind the UniProt entries cited, without tags or fusion partners. Where a name states a change or a piece, a line headed by the entry shows the natural chain unless it says otherwise. A line that says so, or that is headed by a name, gives the form on record, which may keep a tag or linker.
UniProt P05556: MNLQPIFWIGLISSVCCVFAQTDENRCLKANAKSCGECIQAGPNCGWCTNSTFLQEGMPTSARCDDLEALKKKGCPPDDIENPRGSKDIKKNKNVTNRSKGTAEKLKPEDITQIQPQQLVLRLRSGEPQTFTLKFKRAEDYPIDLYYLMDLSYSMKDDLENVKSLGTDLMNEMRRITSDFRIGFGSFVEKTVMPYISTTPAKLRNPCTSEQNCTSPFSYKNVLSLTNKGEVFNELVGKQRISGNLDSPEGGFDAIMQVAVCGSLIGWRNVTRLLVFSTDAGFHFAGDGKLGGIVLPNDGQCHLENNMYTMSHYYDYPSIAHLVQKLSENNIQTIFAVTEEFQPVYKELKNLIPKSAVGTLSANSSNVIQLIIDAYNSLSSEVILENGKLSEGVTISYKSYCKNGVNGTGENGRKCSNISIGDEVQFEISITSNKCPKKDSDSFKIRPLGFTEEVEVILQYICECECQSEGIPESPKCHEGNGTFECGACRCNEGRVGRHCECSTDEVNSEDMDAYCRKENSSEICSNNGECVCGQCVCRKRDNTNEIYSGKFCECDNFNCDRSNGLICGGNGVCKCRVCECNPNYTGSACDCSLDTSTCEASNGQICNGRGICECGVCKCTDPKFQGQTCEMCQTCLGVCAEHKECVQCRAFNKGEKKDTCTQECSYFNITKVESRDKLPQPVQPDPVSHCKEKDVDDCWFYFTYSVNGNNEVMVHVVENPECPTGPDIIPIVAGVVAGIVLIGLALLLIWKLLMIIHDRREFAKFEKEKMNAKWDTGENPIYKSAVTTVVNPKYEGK
recombinant soluble basigin (rsBSG), corresponding to the ADAM12-generated basigin ectodomain (P35613-2, form named): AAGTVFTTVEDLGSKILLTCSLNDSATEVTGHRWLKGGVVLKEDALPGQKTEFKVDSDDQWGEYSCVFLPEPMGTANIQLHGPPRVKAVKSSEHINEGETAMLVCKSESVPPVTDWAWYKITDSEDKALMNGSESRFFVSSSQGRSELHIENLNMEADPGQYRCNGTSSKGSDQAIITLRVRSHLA

Assay [1] addresses β1 integrin (human (endogenous in HT1080)) (UniProt P05556). Nature of the assay: co-IP; HT1080 WT cells treated with purified rsBSG before lysis (RIPA buffer); β1 integrin immunoprecipitated with AIIB2 antibody, co-precipitated rsBSG detected by western blot with anti-strep-tag antibody; control rat IgG as negative control; only the binder purified. For orientation: Immunoblotting shows a protein as a band on a membrane.

Assay [2] has as its target recombinant soluble basigin (rsBSG), corresponding to the ADAM12-generated basigin ectodomain (human) (UniProt P35613). Nature of the assay: co-IP; HT1080 WT cells treated with purified rsBSG before lysis (RIPA buffer); rsBSG immunoprecipitated with strep-tag antibody, co-precipitated β1 integrin detected by western blot with AIIB2 antibody; control rat IgG as negative control; only the target purified.

No constants are given. Whether binding was seen depends on the method and setting. In cells and extracts the contact can be indirect. Some entries that bind do so weakly or less than the wild type.

As to “recombinant soluble basigin (rsBSG), corresponding to the ADAM12-generated basigin ectodomain (from UniProt P35613-2 22-207) (domain or fragment)”, in assay [1], the binding result was “binds”. For the substance “β1 integrin (from UniProt P05556 21-798) (receptor)”, in assay [2], the binding result is “binds”.
